Results are given in words; binding and its absence hold for the method and conditions named. Binding calls can cover weak binding; strength is not graded here. Where a sequence is shown, tags or fusion partners need not be part of it.
Molecular target: T1, GST-Cep192 fragment (aa 1501–2040) (human) (UniProt Q8TEP8)
T1 sequence: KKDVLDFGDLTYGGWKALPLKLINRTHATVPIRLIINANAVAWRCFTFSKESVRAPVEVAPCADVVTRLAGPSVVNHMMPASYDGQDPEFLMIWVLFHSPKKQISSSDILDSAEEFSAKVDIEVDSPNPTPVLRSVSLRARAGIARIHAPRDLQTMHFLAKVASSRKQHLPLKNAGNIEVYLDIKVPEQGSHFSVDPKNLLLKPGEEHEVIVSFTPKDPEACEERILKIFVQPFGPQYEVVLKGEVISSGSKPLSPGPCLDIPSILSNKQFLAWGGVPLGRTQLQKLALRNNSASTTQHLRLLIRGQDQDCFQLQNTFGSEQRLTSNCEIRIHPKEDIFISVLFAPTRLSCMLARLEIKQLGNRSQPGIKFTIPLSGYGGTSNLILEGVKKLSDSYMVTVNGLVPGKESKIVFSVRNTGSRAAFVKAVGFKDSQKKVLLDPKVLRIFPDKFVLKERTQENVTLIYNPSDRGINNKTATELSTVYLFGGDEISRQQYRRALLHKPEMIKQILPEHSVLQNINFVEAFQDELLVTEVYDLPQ
Assay: pull-down; GST-Cep192 fragment kept on Glutathion sepharose beads, incubated with ~5 μg bacterially purified Cep295 fragment for 2 h at 4 °C in ice-cold lysis buffer; seven washes; SDS-PAGE, SimplyBlue Safe stain; both purified

Cep295 fragment (aa 1727–2204), bacterially purified (human) (domain or fragment)
binding: binds

— publication PMC5007451
